{
  "source": "patent US6861431B2",
  "about": "“Compounds capable of modulating the activity of multidrug transporters and therapeutic use of the same” (The Board of Trustees of the University of Illinois, priority 2001, dated 2005)",
  "test_system": "ConA cells",
  "assay": "Drug sensitivity (growth inhibition) assay, ConA cells",
  "format": "cell-based, mouse",
  "conditions": "Compound 102 (10 μM), fold resistance",
  "protocol": "Drug sensitivity assays. To estimate drug-mediated growth inhibition, 10^3 cells were plated per well of 96-well plates, and incubated with a range of concentrations of drugs added 24 hours after plating. […] After elution by 1% SDS solution, optical density was determined on a Multiscan Ascent reader (Lybsystems, Helsinki, Finland) at 650 nm.",
  "data": [
    {"smiles": "CN[C@H]1CCc2cc(OC)c(OC)c(OC)c2-c2ccc(OC)c(=O)cc21", "note": "[Colcemide, colcemid]", "values": [
      {"measurement": "Change in sensitivity (x-fold)", "result": 1, "unit": "x-fold"}
    ]}
  ]
}
